# Results published in the supplement of paper PMC6411743.
# ± gives the standard deviation of the averaged measurements. The list shows a part of the results, in another mix than the full data.
# Assays:
# Assay in all cases: NP40-soluble protein abundance relative to vehicle (solubility fold change) (ratio); higher = more soluble protein in presence of ATP
# [1] = molecular target: T1, UniProt Q7L3B6 and related entries
# T1 sequence (whole entry): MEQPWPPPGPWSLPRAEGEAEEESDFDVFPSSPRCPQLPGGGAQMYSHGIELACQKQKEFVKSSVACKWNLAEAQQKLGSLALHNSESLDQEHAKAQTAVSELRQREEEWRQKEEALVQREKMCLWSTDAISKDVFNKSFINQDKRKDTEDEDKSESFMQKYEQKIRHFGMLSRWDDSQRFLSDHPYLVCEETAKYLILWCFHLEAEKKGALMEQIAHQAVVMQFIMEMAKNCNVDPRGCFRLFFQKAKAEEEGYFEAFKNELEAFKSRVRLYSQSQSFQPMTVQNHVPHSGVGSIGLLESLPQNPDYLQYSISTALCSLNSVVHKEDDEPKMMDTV
# Summary of the method: (§1)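 In three independent experiments, Jurkat crude lysate made by Dounce homogenisation was treated for 10 min at room temperature and then 3 min at 37 °C with eight concentrations ranging from 0.1 to 10 mM. It was then solubilised with 0.8% NP40 plus benzonase for 60 min at 4 °C and ultracentrifuged. The supernatant was TMT-labelled for LC-MS/MS, and each value is the fold change against the detergent-processed vehicle for the same replicate, using vsn-normalised intensities.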
# UniProt Q7L8W6 = molecular target: T2, UniProt Q7L8W6
# T2 sequence (whole entry): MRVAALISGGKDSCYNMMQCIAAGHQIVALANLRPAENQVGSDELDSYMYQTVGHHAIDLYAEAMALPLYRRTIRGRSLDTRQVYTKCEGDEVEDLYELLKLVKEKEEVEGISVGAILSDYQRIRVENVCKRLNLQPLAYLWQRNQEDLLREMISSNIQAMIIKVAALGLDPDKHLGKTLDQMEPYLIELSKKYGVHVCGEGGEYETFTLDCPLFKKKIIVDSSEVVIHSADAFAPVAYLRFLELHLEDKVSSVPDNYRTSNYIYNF
# Summary of the method: as §1
# [2] = molecular target: T3, UniProt Q86TB9 and related entries
# T3 sequence (whole entry): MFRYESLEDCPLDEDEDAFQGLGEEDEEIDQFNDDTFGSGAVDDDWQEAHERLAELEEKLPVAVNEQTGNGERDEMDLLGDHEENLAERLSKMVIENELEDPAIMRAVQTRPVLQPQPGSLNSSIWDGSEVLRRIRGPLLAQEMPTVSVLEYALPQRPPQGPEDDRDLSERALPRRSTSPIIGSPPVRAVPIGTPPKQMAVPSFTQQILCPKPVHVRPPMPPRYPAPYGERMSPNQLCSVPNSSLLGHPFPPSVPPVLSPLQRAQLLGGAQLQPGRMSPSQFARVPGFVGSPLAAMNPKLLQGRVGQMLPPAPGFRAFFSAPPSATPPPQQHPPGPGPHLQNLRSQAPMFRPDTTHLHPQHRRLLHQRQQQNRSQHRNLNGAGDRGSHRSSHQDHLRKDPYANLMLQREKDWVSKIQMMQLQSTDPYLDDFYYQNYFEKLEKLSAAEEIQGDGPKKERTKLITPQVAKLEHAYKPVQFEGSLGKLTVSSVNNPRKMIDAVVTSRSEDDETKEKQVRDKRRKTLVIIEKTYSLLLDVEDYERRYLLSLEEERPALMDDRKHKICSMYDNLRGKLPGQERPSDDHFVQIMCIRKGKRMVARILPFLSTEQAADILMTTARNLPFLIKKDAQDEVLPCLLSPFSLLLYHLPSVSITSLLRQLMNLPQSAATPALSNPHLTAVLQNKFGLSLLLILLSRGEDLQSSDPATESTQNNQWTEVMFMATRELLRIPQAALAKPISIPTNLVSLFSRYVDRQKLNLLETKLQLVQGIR
# Summary of the method: as §1
# [3] = molecular target: T4, UniProt Q86W34 and related entries
# T4 sequence (whole entry): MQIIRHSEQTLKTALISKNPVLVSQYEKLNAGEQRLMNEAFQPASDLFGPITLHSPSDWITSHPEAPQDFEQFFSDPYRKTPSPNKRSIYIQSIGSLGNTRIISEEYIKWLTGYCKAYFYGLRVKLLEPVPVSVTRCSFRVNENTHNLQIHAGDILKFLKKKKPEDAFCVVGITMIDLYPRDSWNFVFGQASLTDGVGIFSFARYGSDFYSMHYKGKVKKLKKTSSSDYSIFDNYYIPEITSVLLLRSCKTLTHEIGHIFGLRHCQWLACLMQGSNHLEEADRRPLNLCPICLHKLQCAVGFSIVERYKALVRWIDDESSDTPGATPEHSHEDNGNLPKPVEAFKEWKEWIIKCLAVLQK
# Summary of the method: as §1
# [4] = molecular target: T5, UniProt Q86WA6 and related entries
# T5 sequence (whole entry): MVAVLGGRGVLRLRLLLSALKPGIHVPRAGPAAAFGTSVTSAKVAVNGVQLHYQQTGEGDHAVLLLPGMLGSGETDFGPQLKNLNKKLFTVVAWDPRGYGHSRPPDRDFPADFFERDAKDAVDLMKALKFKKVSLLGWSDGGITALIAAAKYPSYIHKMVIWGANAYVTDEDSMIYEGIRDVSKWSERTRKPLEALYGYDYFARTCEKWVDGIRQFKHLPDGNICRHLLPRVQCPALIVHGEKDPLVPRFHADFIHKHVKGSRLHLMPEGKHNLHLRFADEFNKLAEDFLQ
# Summary of the method: as §1
structure (smiles),measurement,setting,value
Nc1ncnc2c1ncn2[C@@H]1O[C@H](COP(=O)(O)OP(=O)(O)OP(=O)(O)O)[C@@H](O)[C@H]1O [adenosine triphosphate],NP40-soluble protein abundance,[1]; concentration: 1mM,0.94 ± 0.013
same,NP40-soluble protein abundance,[1]; concentration: 2mM,0.959 ± 0.015
same,NP40-soluble protein abundance,[1]; concentration: 4mM,0.923 ± 0.066
same,NP40-soluble protein abundance,[1]; concentration: 6mM,0.985 ± 0.059
same,NP40-soluble protein abundance,[1]; concentration: 8mM,0.923 ± 0.011
same,NP40-soluble protein abundance,[1]; concentration: 10mM,0.891 ± 0.085
same,NP40-soluble protein abundance,UniProt Q7L8W6; concentration: 1mM,1.01 ± 0.11
same,NP40-soluble protein abundance,UniProt Q7L8W6; concentration: 2mM,1.04 ± 0.11
same,NP40-soluble protein abundance,UniProt Q7L8W6; concentration: 4mM,1.01 ± 0.078
same,NP40-soluble protein abundance,UniProt Q7L8W6; concentration: 6mM,1.01 ± 0.18
same,NP40-soluble protein abundance,UniProt Q7L8W6; concentration: 8mM,1.03 ± 0.062
same,NP40-soluble protein abundance,UniProt Q7L8W6; concentration: 10mM,1.07 ± 0.12
same,NP40-soluble protein abundance,[2]; concentration: 1mM,0.9812 ± 0.0094
same,NP40-soluble protein abundance,[2]; concentration: 2mM,0.9891 ± 0.0063
same,NP40-soluble protein abundance,[2]; concentration: 4mM,0.97 ± 0.016
same,NP40-soluble protein abundance,[2]; concentration: 6mM,0.9846 ± 0.0072
same,NP40-soluble protein abundance,[2]; concentration: 8mM,0.963 ± 0.017
same,NP40-soluble protein abundance,[2]; concentration: 10mM,0.973 ± 0.0086
same,NP40-soluble protein abundance,[3]; concentration: 1mM,1.02 ± 0.073
same,NP40-soluble protein abundance,[3]; concentration: 2mM,1.06 ± 0.052
same,NP40-soluble protein abundance,[3]; concentration: 4mM,1.06 ± 0.017
same,NP40-soluble protein abundance,[3]; concentration: 6mM,0.881 ± 0.14
same,NP40-soluble protein abundance,[3]; concentration: 8mM,0.996 ± 0.044
same,NP40-soluble protein abundance,[3]; concentration: 10mM,1.06 ± 0.1
same,NP40-soluble protein abundance,[4]; concentration: 1mM,0.985 ± 0.04
same,NP40-soluble protein abundance,[4]; concentration: 2mM,0.974 ± 0.03
same,NP40-soluble protein abundance,[4]; concentration: 4mM,0.974 ± 0.03
same,NP40-soluble protein abundance,[4]; concentration: 6mM,0.944 ± 0.039
same,NP40-soluble protein abundance,[4]; concentration: 8mM,0.982 ± 0.016
same,NP40-soluble protein abundance,[4]; concentration: 10mM,0.94 ± 0.038

# An excerpt of these results, with tabs:
structure (smiles)	measurement	setting	value
Nc1ncnc2c1ncn2[C@@H]1O[C@H](COP(=O)(O)OP(=O)(O)OP(=O)(O)O)[C@@H](O)[C@H]1O [adenosine triphosphate]	NP40-soluble protein abundance	[3]; concentration: 10mM	1.06 ± 0.1
same	NP40-soluble protein abundance	[4]; concentration: 1mM	0.985 ± 0.04
